No constants are given. Whether binding was seen depends on the method and setting. Some binding calls cover weakened binding; strength is not graded here.
What was measured:
[1] = molecular target: mouse TGF-β1 (mouse) (UniProt P04202); experiment: NFAT reporter in Jurkat cells carrying the CAR (FIG. 8)
[2] = molecular target: mouse TGF-β1 (mouse) (UniProt P04202); experiment: NFAT reporter in Jurkat cells carrying the CAR, murine TGF-β1 titrated

By UniProt entry, the sequences of proteins in these tests, tags left out. Residues count along the entry.
UniProt P04202, residues 279-390: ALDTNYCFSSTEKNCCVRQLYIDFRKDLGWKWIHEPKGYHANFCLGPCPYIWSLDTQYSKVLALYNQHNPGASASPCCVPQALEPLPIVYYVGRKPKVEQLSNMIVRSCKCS

binding [1]: binds
binding [2]: binds
B1: TGF-β CAR (created using scFv #2; spacer not stated for the assay) (receptor, not shown: large carriers)
chain: DYKDDDDKQVQLVQSGAEVKKPGSSVKVSCKASGYTFSSNVISWVRQAPGQGLEWMGGVIPIVDIANYAQRFKGRVTITADESTSTTYMELSSLRSEDTAVYYCALPRAFVLDAMDYWGQGTLVTVSSGGGGSGGGGSGGGGSETVLTQSPGTLSLSPGERATLSCRASQSLGSSYLAWYQQKPGQAPRLLIYGASSRAPGIPDRFSGSGSGTDFTLTISRLEPEDFAVYYCQQYADSPITFGQGTRLEIK
